# Measured values published in the supplement of paper PMC8728848.
# The other results are listed elsewhere or left out.
# B1: PX14375A-pdi-503-28-503 (Parabacteroides distasonis) (protein)
# chain: PLGSPEAGDISEERQAFLRLTAVYSVMKDFRYTWSMQCFGDVLSNDATYSGSSNDAQTFTLLENYQYQADHTEILNKYRYSYQCINKANLFIRDMEMADDALFSKYDKEQMIGEAKFIRAYTYFELVKTFGGVPCYTGVLDLDHERLGRASVEEIYSVIEQDLNDAVSVLPKKSEVANYESSYAGRITKGAAIAMQTRIYLYEKKYDEVKKAFEKFQNECGGEYSLVAPEDYTWQFSLDGEHCSSSILEVNMYNSSTQSSYNVNNGNRHVLMSMPRNMTIGFGCAQPTQALADAYDAEGDVIRKKTTLLSTEEAIEIETAAKGDVAPVTDDRTGWYNRKLYLAPGQREENRGNNQPTNLRLIRLAEVYLNYAEACYFSGDIANAQKYLNEVRSHVNLAPKNHTGSQLFEDIMNERHLEFGMEGFRFFDVVRVGWGEKVFNGTKKAEFGAKTPFSAGAEVLPIPQTEIDISDGLITN
# What was measured:
# Test in all cases: glycan array binding signal (z-score within array); higher = stronger binding
# Settings in all cases: glycan notation: IUPAC condensed, linker removed
# [1] = molecular target: Fuc(a1-3)[Gal3S(b1-4)]GlcNAc6S
# Procedure, shortened: (§1)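 The Consortium for Functional Glycomics database supplied 3228 glycan arrays, of which those lacking an available protein sequence were dropped. The binding signal, a within-array Z-score, was averaged across arrays of the same protein sequence and across linkers. Negative scores can be read as non-binding.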
# [2] = molecular target: Fuc(a1-3)[GalNAc(b1-4)]GlcNAc
# Procedure, shortened: as §1
# [3] = molecular target: Fuc(a1-3)[GalNAc(b1-4)]GlcNAc6S
# Procedure, shortened: as §1
# [4] = molecular target: Fuc(a1-4)GlcNAc
# Procedure, shortened: as §1
# [5] = molecular target: Fuc(b1-3)GlcNAc
# Procedure, shortened: as §1
# [6] = molecular target: Gal(a1-2)Gal
# Procedure, shortened: as §1
# [7] = molecular target: Gal(a1-3)Gal
# Procedure, shortened: as §1
# [8] = molecular target: Gal(a1-3)Gal(b1-3)GlcNAc
# Procedure, shortened: as §1
# [9] = molecular target: Gal(a1-3)Gal(b1-3)GlcNAc(b1-2)Man
# Procedure, shortened: as §1
# [10] = molecular target: Gal(a1-3)Gal(b1-3)GlcNAc(b1-2)Man(a1-3)[Gal(a1-3)Gal(b1-3)GlcNAc(b1-2)Man(a1-6)]Man(b1-4)GlcNAc(b1-4)GlcNAc
# Procedure, shortened: as §1
# [11] = molecular target: Gal(a1-3)Gal(b1-3)GlcNAc(b1-3)GalNAc
# Procedure, shortened: as §1
# [12] = molecular target: Gal(a1-3)Gal(b1-3)GlcNAc(b1-6)GalNAc
# Procedure, shortened: as §1
# [13] = molecular target: Gal(a1-3)Gal(b1-3)[Fuc(a1-4)]GlcNAc(b1-2)Man(a1-3)[Gal(a1-3)Gal(b1-3)[Fuc(a1-4)]GlcNAc(b1-2)Man(a1-6)]Man(b1-4)GlcNAc(b1-4)GlcNAc
# Procedure, shortened: as §1
# [14] = molecular target: Gal(a1-3)Gal(b1-4)Glc
# Procedure, shortened: as §1
# [15] = molecular target: Gal(a1-3)Gal(b1-4)GlcNAc
# Procedure, shortened: as §1
# [16] = molecular target: Gal(a1-3)Gal(b1-4)GlcNAc(b1-2)Man
# Procedure, shortened: as §1
# [17] = molecular target: Gal(a1-3)Gal(b1-4)GlcNAc(b1-2)Man(a1-3)[Gal(a1-3)Gal(b1-4)GlcNAc(b1-2)Man(a1-6)]Man(b1-4)GlcNAc(b1-4)GlcNAc
# Procedure, shortened: as §1
# [18] = molecular target: Gal(a1-3)Gal(b1-4)GlcNAc(b1-3)GalNAc
# Procedure, shortened: as §1
# [19] = molecular target: Gal(a1-3)Gal(b1-4)GlcNAc(b1-6)GalNAc
# Procedure, shortened: as §1
# [20] = molecular target: Gal(a1-3)Gal(b1-4)[Fuc(a1-3)]GlcNAc
# Procedure, shortened: as §1
# [21] = molecular target: Gal(a1-3)Gal(b1-4)[Fuc(a1-3)]GlcNAc(b1-2)Man(a1-3)[Gal(a1-3)Gal(b1-4)[Fuc(a1-3)]GlcNAc(b1-2)Man(a1-6)]Man(b1-4)GlcNAc(b1-4)GlcNAc
# Procedure, shortened: as §1
# [22] = molecular target: Gal(a1-3)GalNAc
# Procedure, shortened: as §1
# [23] = molecular target: Gal(a1-3)[Gal(a1-4)]Gal(b1-4)GlcNAc
# Procedure, shortened: as §1
# [24] = molecular target: Gal(a1-4)Gal(b1-3)GlcNAc(b1-2)Man(a1-3)[Gal(a1-4)Gal(b1-3)GlcNAc(b1-2)Man(a1-6)]Man(b1-4)GlcNAc(b1-4)GlcNAc
# Procedure, shortened: as §1
# [25] = molecular target: Gal(a1-4)Gal(b1-4)Glc
# Procedure, shortened: as §1
# [26] = molecular target: Gal(a1-4)Gal(b1-4)GlcNAc
# Procedure, shortened: as §1
# [27] = molecular target: Gal(a1-4)Gal(b1-4)GlcNAc(b1-2)Man(a1-3)[Gal(a1-4)Gal(b1-4)GlcNAc(b1-2)Man(a1-6)]Man(b1-4)GlcNAc(b1-4)GlcNAc
# Procedure, shortened: as §1
# [28] = molecular target: Gal(a1-4)Gal(b1-4)GlcNAc(b1-3)Gal(b1-4)Glc
# Procedure, shortened: as §1
# [29] = molecular target: Gal(a1-4)GlcNAc
# Procedure, shortened: as §1
# [30] = molecular target: Gal(a1-6)Glc
# Procedure, shortened: as §1
# [31] = molecular target: Gal(b1-2)Gal
# Procedure, shortened: as §1
# [32] = molecular target: Gal(b1-3)Gal
# Procedure, shortened: as §1
# [33] = molecular target: Gal(b1-3)Gal(b1-4)GlcNAc
# Procedure, shortened: as §1
# [34] = molecular target: Gal(b1-3)GalNAc
# Procedure, shortened: as §1
# [35] = molecular target: Gal(b1-3)GalNAc(a1-3)[Fuc(a1-2)]Gal(b1-4)Glc
# Procedure, shortened: as §1
# [36] = molecular target: Gal(b1-3)GalNAc(a1-3)[Fuc(a1-2)]Gal(b1-4)GlcNAc
# Procedure, shortened: as §1
# [37] = molecular target: Gal(b1-3)GalNAc(b1-3)Gal
# Procedure, shortened: as §1
binder,measurement,setting,value
B1,glycan array binding signal (z-score),[1],-0.103
same,glycan array binding signal (z-score),[2],0.871
same,glycan array binding signal (z-score),[3],0.949
same,glycan array binding signal (z-score),[4],0.69
same,glycan array binding signal (z-score),[5],1.35
same,glycan array binding signal (z-score),[6],0.188
same,glycan array binding signal (z-score),[7],-0.33
same,glycan array binding signal (z-score),[8],-0.481
same,glycan array binding signal (z-score),[9],-0.5
same,glycan array binding signal (z-score),[10],0.626
same,glycan array binding signal (z-score),[11],0.497
same,glycan array binding signal (z-score),[12],-0.022
same,glycan array binding signal (z-score),[13],0.223
same,glycan array binding signal (z-score),[14],-0.124
same,glycan array binding signal (z-score),[15],-0.399
same,glycan array binding signal (z-score),[16],-0.094
same,glycan array binding signal (z-score),[17],-0.407
same,glycan array binding signal (z-score),[18],-0.607
same,glycan array binding signal (z-score),[19],0.08
same,glycan array binding signal (z-score),[20],-0.426
same,glycan array binding signal (z-score),[21],0.144
same,glycan array binding signal (z-score),[22],-0.34
same,glycan array binding signal (z-score),[23],2.05
same,glycan array binding signal (z-score),[24],-0.248
same,glycan array binding signal (z-score),[25],0.305
same,glycan array binding signal (z-score),[26],0.051
same,glycan array binding signal (z-score),[27],0.496
same,glycan array binding signal (z-score),[28],-0.742
same,glycan array binding signal (z-score),[29],-0.567
same,glycan array binding signal (z-score),[30],0.257
same,glycan array binding signal (z-score),[31],0.409
same,glycan array binding signal (z-score),[32],-0.757
same,glycan array binding signal (z-score),[33],-0.2
same,glycan array binding signal (z-score),[34],-0.065
same,glycan array binding signal (z-score),[35],-0.427
same,glycan array binding signal (z-score),[36],0.218
same,glycan array binding signal (z-score),[37],-0.316

# Nothing new here: entries from further up.
binder,measurement,setting,value
B1,glycan array binding signal (z-score),[11],0.497
same,glycan array binding signal (z-score),[12],-0.022
